# Data reported in patent US20240150377A1, “MODULATORS OF CYSTIC FIBROSIS TRANSMEMBRANE CONDUCTANCE REGULATOR” (VERTEX PHARMACEUTICALS INCORPORATED, priority 2020, published 2024).
# Sequences of proteins named here, by UniProt entry; tags and fusion partners are left off. A line that says so, or that is headed by a name, gives the form on record, which may keep a tag or linker.
# UniProt P13569, with tags, fused parts or gaps DEL508-508: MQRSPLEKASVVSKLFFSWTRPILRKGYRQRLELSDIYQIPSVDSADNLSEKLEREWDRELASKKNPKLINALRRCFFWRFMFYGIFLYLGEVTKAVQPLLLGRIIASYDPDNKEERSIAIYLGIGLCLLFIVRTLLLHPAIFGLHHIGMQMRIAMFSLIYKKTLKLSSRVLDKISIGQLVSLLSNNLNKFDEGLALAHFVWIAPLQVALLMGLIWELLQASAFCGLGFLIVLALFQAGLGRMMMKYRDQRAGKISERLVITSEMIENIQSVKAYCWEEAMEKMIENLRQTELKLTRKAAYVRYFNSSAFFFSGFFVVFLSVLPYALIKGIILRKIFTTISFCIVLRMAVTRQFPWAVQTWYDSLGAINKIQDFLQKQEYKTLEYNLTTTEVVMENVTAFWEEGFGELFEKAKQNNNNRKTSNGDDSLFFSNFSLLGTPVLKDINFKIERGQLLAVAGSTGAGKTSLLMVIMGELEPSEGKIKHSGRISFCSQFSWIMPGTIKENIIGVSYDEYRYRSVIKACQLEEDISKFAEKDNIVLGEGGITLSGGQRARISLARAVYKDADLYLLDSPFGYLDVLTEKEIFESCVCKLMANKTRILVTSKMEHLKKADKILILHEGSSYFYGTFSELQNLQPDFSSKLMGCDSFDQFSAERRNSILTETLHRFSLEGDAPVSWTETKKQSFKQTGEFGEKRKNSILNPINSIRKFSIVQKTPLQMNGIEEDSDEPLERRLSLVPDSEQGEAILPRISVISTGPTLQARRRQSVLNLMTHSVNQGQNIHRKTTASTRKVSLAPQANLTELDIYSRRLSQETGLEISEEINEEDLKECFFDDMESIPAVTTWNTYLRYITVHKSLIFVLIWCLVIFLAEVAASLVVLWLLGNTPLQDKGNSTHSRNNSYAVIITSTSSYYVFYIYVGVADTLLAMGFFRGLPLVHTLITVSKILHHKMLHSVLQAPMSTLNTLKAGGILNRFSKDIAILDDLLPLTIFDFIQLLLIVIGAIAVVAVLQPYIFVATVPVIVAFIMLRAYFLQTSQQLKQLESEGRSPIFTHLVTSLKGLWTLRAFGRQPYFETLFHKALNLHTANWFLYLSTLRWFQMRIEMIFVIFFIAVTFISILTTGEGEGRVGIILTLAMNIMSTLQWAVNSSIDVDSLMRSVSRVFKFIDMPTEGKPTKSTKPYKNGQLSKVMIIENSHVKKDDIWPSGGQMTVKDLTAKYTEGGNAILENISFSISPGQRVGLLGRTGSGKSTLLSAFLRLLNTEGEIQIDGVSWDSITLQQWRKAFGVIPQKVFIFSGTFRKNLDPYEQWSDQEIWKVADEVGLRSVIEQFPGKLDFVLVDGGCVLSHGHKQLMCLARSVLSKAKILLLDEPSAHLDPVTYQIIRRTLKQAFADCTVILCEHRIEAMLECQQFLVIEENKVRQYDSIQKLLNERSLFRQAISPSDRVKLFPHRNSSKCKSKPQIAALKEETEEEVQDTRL
# Biological target: CFTR (Homo sapiens, UniProt P13569, DEL508-508)
# Test: HBE2 assay: Ussing chamber assay of CFTR-mediated short-circuit currents
# Details: F508del/MF-HBE cells, 18-24 hours, 20% human serum; for HBE2 Activity at 3 μM (%): 3 μM corrector; for HBE2 Activity at 3 μM (%) / HBE2 Max activity (%): with 44 nM potentiator; for EC50: read-out: HBE2 EC50, corrector at a range of concentrations with 44 nM potentiator
SMILES,HBE2 Activity at 3 μM (%),HBE2 Max activity (%),EC50 [nM]
Cc1cccc(C)c1-c1cc2nc(n1)NS(=O)(=O)c1cccc(c1)C(=O)N(Cc1nccc(N3CCC[C@H]3C(C)C)n1)[C@H](CCC(C)C)CO2,+++ (+++ is >60+),+++ (+++ is >60+),1000 to 3000
Cc1cccc(C)c1-c1cc2nc(n1)NS(=O)(=O)c1cccc(c1)C(=O)N(Cc1nccc(N3CC[C@H]3C)n1)[C@H](CCC(C)C)CO2,+++ (+++ is >60+),+++ (+++ is >60+),< 1000
COC[C@@H]1CCN1c1ccnc(CN2C(=O)c3cccc(c3)S(=O)(=O)Nc3nc(cc(-c4c(C)cccc4C)n3)OC[C@H]2CCC(C)C)n1,+++ (+++ is >60+),+++ (+++ is >60+),< 1000

# The match of structure and compound is tentative.
